Experimental data from the supplement of paper PMC10849652.
The list shows a part of the results.

Chains of the proteins cited; added tags and fusions are not shown. Lines headed by an entry give the natural chain unless they say otherwise; changes in a name come on top.
UniProt O75884: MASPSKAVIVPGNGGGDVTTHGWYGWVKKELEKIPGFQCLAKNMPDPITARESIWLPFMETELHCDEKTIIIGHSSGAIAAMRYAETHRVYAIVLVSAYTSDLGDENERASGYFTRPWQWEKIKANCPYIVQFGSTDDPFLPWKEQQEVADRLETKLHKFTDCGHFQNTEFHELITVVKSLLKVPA
UniProt Q8IXT5: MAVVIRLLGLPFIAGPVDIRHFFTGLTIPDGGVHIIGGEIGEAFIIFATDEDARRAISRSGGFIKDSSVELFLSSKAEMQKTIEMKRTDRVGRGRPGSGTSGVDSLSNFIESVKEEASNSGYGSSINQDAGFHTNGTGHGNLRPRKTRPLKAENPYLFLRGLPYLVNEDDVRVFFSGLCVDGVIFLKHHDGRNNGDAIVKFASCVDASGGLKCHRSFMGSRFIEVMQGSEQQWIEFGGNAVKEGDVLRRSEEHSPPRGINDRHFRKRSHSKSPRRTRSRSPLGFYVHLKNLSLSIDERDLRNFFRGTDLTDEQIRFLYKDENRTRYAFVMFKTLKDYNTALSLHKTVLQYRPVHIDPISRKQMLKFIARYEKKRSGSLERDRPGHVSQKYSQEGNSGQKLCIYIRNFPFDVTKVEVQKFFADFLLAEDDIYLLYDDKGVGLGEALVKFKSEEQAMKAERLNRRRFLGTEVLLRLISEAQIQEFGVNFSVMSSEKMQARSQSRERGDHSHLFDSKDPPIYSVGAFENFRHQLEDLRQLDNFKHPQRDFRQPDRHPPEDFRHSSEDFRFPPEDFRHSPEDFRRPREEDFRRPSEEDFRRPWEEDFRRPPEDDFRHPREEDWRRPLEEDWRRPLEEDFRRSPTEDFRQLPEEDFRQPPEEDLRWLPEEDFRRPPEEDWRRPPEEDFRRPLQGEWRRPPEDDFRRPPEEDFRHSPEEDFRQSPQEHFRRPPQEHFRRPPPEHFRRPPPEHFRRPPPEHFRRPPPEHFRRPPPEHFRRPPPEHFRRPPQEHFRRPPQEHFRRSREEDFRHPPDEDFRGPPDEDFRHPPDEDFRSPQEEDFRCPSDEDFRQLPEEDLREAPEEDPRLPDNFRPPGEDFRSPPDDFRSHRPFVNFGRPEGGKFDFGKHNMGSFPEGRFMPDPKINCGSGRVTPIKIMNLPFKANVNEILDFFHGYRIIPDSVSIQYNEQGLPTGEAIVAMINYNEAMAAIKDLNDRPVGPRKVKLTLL
UniProt Q96IZ5: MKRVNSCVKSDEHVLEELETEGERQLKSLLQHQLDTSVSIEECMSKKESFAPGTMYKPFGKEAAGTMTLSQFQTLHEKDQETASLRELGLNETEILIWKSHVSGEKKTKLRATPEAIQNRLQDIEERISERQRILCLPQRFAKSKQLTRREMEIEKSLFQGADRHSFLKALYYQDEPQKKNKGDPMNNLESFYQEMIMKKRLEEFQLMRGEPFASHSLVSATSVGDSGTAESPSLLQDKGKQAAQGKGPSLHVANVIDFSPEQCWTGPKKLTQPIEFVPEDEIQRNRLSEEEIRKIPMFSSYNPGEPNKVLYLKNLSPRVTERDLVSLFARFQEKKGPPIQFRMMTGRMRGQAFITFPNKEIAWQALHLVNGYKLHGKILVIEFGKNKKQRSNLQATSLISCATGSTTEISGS
UniProt Q04206, whole entry, looked up: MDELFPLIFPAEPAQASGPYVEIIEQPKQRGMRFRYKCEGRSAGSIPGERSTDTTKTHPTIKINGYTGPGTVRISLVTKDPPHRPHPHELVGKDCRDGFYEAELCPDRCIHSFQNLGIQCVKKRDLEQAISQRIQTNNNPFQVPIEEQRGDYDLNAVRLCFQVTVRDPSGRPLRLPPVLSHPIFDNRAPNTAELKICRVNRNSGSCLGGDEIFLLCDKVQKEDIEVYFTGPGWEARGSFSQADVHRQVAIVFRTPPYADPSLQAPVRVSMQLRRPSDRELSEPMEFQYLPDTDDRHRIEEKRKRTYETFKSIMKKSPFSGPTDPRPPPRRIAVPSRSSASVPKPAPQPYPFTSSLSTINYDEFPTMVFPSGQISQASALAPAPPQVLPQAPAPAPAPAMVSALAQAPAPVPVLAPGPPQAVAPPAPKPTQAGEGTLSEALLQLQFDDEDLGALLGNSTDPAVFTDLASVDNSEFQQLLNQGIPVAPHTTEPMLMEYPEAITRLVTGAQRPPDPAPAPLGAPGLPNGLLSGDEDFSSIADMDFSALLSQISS
UniProt Q02833: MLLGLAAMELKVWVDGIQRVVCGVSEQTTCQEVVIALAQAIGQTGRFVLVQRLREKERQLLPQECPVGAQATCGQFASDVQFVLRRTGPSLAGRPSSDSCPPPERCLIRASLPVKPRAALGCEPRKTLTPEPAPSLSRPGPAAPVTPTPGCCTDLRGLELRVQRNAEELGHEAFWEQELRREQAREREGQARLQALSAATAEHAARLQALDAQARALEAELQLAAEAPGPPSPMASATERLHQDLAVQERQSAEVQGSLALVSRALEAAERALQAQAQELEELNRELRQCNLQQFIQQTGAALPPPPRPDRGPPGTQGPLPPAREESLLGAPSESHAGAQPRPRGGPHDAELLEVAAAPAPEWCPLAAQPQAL
UniProt Q9BWF3: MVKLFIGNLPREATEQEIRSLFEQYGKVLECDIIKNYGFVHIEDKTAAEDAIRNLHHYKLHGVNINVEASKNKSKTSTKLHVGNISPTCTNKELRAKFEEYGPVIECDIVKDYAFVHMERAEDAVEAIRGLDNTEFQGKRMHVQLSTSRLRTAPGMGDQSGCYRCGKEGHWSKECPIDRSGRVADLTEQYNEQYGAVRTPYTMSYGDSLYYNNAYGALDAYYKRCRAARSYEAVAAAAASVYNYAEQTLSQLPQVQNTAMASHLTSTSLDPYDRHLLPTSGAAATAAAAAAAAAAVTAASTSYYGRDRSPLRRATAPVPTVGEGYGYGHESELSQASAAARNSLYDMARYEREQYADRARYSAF
UniProt Q8IUW5: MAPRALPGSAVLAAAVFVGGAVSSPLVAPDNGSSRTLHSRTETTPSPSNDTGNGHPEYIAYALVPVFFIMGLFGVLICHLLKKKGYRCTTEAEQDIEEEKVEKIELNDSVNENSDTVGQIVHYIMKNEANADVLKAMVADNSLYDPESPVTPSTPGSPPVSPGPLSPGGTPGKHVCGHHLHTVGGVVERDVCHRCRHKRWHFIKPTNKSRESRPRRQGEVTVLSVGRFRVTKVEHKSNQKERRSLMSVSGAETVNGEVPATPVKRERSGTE
UniProt Q9Y644: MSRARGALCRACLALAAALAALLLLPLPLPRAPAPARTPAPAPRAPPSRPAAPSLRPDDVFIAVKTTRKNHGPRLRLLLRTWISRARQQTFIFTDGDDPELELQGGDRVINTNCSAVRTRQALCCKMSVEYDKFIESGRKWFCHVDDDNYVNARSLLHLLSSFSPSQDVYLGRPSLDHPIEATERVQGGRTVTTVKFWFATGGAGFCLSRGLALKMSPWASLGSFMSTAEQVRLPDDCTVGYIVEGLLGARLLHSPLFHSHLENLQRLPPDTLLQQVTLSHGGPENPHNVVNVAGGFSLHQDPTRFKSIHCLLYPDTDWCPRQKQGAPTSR
UniProt Q9Y3P4: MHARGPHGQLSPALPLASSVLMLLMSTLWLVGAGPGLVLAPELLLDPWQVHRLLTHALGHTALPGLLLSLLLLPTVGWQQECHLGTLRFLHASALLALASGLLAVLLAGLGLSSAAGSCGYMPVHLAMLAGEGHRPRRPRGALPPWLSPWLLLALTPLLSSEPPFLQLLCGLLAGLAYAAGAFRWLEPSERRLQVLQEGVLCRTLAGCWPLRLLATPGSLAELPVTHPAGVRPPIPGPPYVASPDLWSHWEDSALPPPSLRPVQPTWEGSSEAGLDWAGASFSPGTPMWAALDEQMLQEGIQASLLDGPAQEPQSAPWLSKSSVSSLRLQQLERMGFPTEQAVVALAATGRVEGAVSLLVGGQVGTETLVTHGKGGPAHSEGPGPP
UniProt P48380: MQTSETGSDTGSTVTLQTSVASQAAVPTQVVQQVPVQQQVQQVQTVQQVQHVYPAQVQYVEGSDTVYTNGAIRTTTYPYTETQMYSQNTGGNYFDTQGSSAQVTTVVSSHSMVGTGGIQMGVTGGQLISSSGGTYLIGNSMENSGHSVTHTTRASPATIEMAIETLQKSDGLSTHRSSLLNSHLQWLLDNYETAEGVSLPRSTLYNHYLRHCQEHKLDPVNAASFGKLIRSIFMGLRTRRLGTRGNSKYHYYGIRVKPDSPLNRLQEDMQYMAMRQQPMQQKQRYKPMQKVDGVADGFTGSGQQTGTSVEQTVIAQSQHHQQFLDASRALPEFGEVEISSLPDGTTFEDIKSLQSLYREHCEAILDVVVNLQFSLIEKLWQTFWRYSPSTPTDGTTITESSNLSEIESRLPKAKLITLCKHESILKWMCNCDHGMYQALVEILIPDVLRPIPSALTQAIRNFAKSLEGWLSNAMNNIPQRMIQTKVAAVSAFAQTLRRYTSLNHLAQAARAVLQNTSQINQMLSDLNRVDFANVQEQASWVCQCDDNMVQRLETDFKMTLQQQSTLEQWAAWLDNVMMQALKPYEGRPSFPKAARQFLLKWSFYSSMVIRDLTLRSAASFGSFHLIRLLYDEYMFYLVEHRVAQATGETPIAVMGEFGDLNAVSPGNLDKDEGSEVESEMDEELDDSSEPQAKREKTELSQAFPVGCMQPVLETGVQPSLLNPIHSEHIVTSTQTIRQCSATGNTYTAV
UniProt Q16576, whole entry, looked up: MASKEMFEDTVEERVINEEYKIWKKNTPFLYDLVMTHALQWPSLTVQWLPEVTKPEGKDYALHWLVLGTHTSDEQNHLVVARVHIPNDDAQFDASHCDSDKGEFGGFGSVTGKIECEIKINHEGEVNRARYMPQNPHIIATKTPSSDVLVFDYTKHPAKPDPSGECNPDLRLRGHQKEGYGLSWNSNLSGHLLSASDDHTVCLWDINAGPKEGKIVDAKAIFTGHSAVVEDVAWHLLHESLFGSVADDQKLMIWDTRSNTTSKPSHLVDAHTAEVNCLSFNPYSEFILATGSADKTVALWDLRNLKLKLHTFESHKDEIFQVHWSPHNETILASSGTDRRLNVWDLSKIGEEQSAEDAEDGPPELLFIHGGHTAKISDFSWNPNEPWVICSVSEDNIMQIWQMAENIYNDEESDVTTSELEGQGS
UniProt Q9Y388: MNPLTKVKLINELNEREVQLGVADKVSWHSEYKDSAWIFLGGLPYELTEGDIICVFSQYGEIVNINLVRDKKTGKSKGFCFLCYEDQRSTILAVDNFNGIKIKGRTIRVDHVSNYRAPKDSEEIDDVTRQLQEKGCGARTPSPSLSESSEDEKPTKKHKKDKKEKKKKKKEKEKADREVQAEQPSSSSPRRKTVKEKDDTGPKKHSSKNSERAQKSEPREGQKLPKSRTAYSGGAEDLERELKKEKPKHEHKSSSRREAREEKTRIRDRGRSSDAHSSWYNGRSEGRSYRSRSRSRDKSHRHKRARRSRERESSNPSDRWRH
UniProt Q9P260: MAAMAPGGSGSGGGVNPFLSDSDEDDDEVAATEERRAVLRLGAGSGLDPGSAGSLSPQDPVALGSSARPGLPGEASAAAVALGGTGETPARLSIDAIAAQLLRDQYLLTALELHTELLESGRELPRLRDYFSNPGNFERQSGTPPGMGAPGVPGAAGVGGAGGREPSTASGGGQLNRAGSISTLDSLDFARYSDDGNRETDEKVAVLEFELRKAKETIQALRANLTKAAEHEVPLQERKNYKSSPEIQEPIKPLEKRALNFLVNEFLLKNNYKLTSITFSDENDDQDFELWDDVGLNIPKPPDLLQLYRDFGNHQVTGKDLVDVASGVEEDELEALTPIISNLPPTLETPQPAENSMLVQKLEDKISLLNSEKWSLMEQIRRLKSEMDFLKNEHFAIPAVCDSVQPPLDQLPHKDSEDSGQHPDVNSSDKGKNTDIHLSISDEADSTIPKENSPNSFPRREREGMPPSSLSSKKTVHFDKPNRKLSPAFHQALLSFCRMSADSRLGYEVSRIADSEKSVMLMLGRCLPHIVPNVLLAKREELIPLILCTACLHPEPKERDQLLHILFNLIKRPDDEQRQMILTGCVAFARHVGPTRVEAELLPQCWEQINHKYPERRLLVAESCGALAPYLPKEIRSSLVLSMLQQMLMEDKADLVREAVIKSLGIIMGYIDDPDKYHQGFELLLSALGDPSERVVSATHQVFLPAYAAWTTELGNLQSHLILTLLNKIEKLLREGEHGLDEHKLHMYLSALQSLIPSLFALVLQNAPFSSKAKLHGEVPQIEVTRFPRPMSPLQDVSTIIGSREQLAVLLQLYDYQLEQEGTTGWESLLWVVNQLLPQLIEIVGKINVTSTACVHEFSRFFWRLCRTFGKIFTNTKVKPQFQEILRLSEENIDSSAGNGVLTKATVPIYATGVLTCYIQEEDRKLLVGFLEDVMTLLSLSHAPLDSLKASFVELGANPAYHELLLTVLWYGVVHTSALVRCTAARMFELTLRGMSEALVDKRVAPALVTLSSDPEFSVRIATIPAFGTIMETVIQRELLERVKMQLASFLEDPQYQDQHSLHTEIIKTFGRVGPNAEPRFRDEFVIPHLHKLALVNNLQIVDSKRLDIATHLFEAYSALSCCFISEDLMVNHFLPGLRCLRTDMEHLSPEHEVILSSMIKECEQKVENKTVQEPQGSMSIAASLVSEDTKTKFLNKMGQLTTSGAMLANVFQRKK

How the values were obtained:
Experiment in all cases: log2 fold change, soluble protein after heating vs DMSO (PISA); higher = thermal stabilisation; K562 lysate, 10 uM; active = over 0.2 and 3.5 SD of the protein, either way, in both replicates (recomputed)
Tubastatin A = compound: CN1CCc2c(c3ccccc3n2Cc2ccc(C(=O)NO)cc2)C1 [Tubastatin A]
In short: (§1)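 A 30 min treatment with 10 μM compound was applied to crude K562 extract at 1 mg/mL protein in PBS pH 7.4 with 1 mM MgCl2. Heating for 3 min spanned 48°C-58°C, after which aliquots were pooled, adjusted to 0.5% NP-40 at 4°C and spun at 21,000xg for 90 min. TMTpro 16plex LC-MS/MS of the supernatant, with channel sums equalised, gave values recorded as log-two fold change in thermal stability against solvent controls, from duplicates.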

[1] = compound: CNC(=O)C1=CC=CC=C1NC2=NC(=NC=C2Cl)NC3=C(C=C(C=C3)N4CCOCC4)OC
In short: as §1

defactinib = compound: CNC(=O)c1ccc(Nc2ncc(C(F)(F)F)c(NCc3nccnc3N(C)S(C)(=O)=O)n2)cc1 [defactinib]
In short: as §1

[2] = compound: CNc1nc(-c2ccc3c(N)n[nH]c3c2)cc(N2C[C@@H](C(=O)NC3CCCCC3)CC[C@H]2C)n1
In short: as §1

encorafenib = compound: COC(=O)N[C@@H](C)CNc1nccc(-c2cn(C(C)C)nc2-c2cc(Cl)cc(NS(C)(=O)=O)c2F)n1 [encorafenib]
In short: as §1

[3] = compound: COC(=O)[C@H](CCSC)NC(=O)C1=C(C=C(C=C1)NC[C@H](CS)N)C2=CC=CC=C2
In short: as §1

alisertib = compound: COc1cc(Nc2ncc3c(n2)-c2ccc(Cl)cc2C(c2c(F)cccc2OC)=NC3)ccc1C(=O)O [alisertib]
In short: as §1

[4] = compound: COc1cc2nc(-c3cc(F)ccc3O)nc(N[C@@H]3CNC[C@H]3C(C)(C)O)c2cc1OC
In short: as §1

gefitinib = compound: COc1cc2ncnc(Nc3ccc(F)c(Cl)c3)c2cc1OCCCN1CCOCC1 [gefitinib]
In short: as §1

lapatinib = compound: CS(=O)(=O)CCNCc1ccc(-c2ccc3ncnc(Nc4ccc(OCc5cccc(F)c5)c(Cl)c4)c3c2)o1 [lapatinib]
In short: as §1

pictilisib = compound: CS(=O)(=O)N1CCN(Cc2cc3nc(-c4cccc5[nH]ncc45)nc(N4CCOCC4)c3s2)CC1 [pictilisib]
In short: as §1

crizotinib = compound: C[C@@H](Oc1cc(-c2cnn(C3CCNCC3)c2)cnc1N)c1c(Cl)ccc(F)c1Cl [crizotinib]
In short: as §1

duvelisib = compound: C[C@H](Nc1ncnc2nc[nH]c12)c1cc2cccc(Cl)c2c(=O)n1-c1ccccc1 [duvelisib]
In short: as §1

tozasertib = compound: Cc1cc(Nc2cc(N3CCN(C)CC3)nc(Sc3ccc(NC(=O)C4CC4)cc3)n2)n[nH]1 [tozasertib]
In short: as §1

doramapimod = compound: Cc1ccc(-n2nc(C(C)(C)C)cc2NC(=O)Nc2ccc(OCCN3CCOCC3)c3ccccc23)cc1 [doramapimod]
In short: as §1

bafetinib = compound: Cc1ccc(NC(=O)c2ccc(CN3CC[C@H](N(C)C)C3)c(C(F)(F)F)c2)cc1Nc1nccc(-c2cncnc2)n1 [bafetinib]
In short: as §1

alvocidib = compound: CN1CC[C@H](c2c(O)cc(O)c3c(=O)cc(-c4ccccc4Cl)oc23)[C@H](O)C1 [alvocidib]
In short: as §1

[5] = compound: C[C@H](C1=CC=C(C=C1)C(=O)NC2=C3C=CNC3=NC=C2)N
In short: as §1

gandotinib = compound: Cc1cc(Nc2cc(CN3CCOCC3)c3nc(C)c(Cc4ccc(Cl)cc4F)n3n2)n[nH]1 [gandotinib]
In short: as §1

[6] = compound: Cc1cccc(CC(=O)N2CCc3c2ccc(-c2cn(C)c4ncnc(N)c24)c3F)n1
In short: as §1

Measured: log2 fold change

RBM26 isoform 3 (UniProt Q5T8P6)
inactive: Tubastatin A -0.069 | [1] -0.092 | defactinib -0.05 | [2] -0.007 | encorafenib -0.044 | [3] -0.071 | alisertib 0.073 | [4] 0.128 | gefitinib -0.062 | lapatinib -0.098 | pictilisib -0.016 | crizotinib -0.01 | duvelisib 0.026 | tozasertib -0.105 | doramapimod -0.08 | bafetinib 0.079

RBBP9 (UniProt O75884)
inactive: Tubastatin A 0.045 | [1] -0.083 | defactinib 0.016 | pictilisib -0.04 | crizotinib -0.068 | doramapimod -0.024 | bafetinib -0.019

RBP4 (UniProt P02753)
inactive: alvocidib -0.085 | pictilisib 0.014 | crizotinib -0.074 | [5] -0.109 | gandotinib 0.146 | doramapimod 0.056 | bafetinib 0.062 | [6] 0.056

RBM4B (UniProt Q9BQ04)
inactive: crizotinib -0.007 | doramapimod 0.13

RBM12B (UniProt Q8IXT5)
inactive: Tubastatin A -0.089 | alisertib -0.055 | gefitinib 0.008 | pictilisib -0.107 | bafetinib 0.052

RBM41 (UniProt Q96IZ5)
inactive: alisertib 0.066 | gefitinib -0.116 | pictilisib -0.133 | bafetinib -0.23

RASGRP2 isoform 2 (UniProt Q7LDG7)
inactive: alisertib 0.118 | gefitinib -0.026

RELA (UniProt Q04206)
inactive: Tubastatin A -0.094 | [1] 0.019 | defactinib 0.02 | [2] 0.015 | encorafenib 0.018 | [3] 0.01 | alisertib 0.028 | [4] -0.033 | gefitinib 0.016 | lapatinib 0.007 | pictilisib -0.025 | crizotinib -0.062 | [5] -0.029 | duvelisib 0.016 | gandotinib 0.073 | tozasertib -0.008 | bafetinib -0.064 | [6] 0.062

RHBDD2 isoform 2 (UniProt Q6NTF9)
inactive: Tubastatin A 0.276 | [1] 0.058

RBM45 (UniProt Q8IUH3)
inactive: alvocidib 0.013 | alisertib -0.136 | [4] 0.055 | gefitinib -0.03 | lapatinib -0.12 | crizotinib -0.094 | [5] 0.184 | gandotinib -0.1 | doramapimod 0.014 | [6] 0.077

RBBP5 isoform 2 (UniProt Q15291)
inactive: Tubastatin A -0.01 | defactinib -0.191 | [2] 0.025 | encorafenib -0.131 | [3] -0.24 | alisertib 0.172 | [4] 0.037 | gefitinib -0.342 | lapatinib -0.203 | pictilisib -0.084 | crizotinib -0.091 | duvelisib -0.069 | tozasertib -0.011 | doramapimod -0.013 | bafetinib 0.073

RASSF7 (UniProt Q02833)
inactive: alvocidib 0.027 | alisertib -0.084 | gefitinib 0.089 | pictilisib -0.073 | crizotinib -0.021 | [5] -0.05 | gandotinib -0.055 | doramapimod -0.059 | bafetinib -0.239 | [6] 0.063

2 successive records from above:
RBBP5 isoform 2 (UniProt Q15291)
inactive: Tubastatin A -0.01 | defactinib -0.191 | [2] 0.025 | encorafenib -0.131 | [3] -0.24 | alisertib 0.172 | [4] 0.037 | gefitinib -0.342 | lapatinib -0.203 | pictilisib -0.084 | crizotinib -0.091 | duvelisib -0.069 | tozasertib -0.011 | doramapimod -0.013 | bafetinib 0.073

RASSF7 (UniProt Q02833)
inactive: alvocidib 0.027 | alisertib -0.084 | gefitinib 0.089 | pictilisib -0.073 | crizotinib -0.021 | [5] -0.05 | gandotinib -0.055 | doramapimod -0.059 | bafetinib -0.239 | [6] 0.063

(further entries)

RFX2 (UniProt P48378)
inactive: alvocidib -0.107 | [2] -0.088 | [4] 0.124 | lapatinib 0.076 | pictilisib -0.079 | crizotinib -0.061 | [5] -0.024 | duvelisib -0.183 | gandotinib 0.079 | doramapimod -0.014 | bafetinib 0.089 | [6] -0.069

REST (UniProt Q13127)
inactive: Tubastatin A -0.021 | [1] -0.097 | defactinib -0.063 | [2] 0.002 | [4] 0.029 | lapatinib 0.01 | crizotinib -0.074 | duvelisib -0.021 | doramapimod -0.053

RGPD6 (UniProt H7BZ48)
inactive: crizotinib 0.043 | doramapimod -0.121

RBM4 isoform 3 (UniProt Q9BWF3)
inactive: crizotinib 0.114 | doramapimod 0.016

RELL1 (UniProt Q8IUW5)
inactive: [1] 0.108 | crizotinib -0.071 | doramapimod -0.067

RFNG (UniProt Q9Y644)
inactive: alisertib -0.003 | gefitinib 0.424

RHBDD3 (UniProt Q9Y3P4)
inactive: crizotinib 0.144 | doramapimod -0.18

2 records picked at random from the list so far, as already listed:
RHBDD3 (UniProt Q9Y3P4)
inactive: crizotinib 0.144 | doramapimod -0.18

RGPD6 (UniProt H7BZ48)
inactive: crizotinib 0.043 | doramapimod -0.121

Further records follow:

RBMXL1 (UniProt Q96E39)
inactive: defactinib 0.039 | [2] 0.117 | encorafenib -0.008 | [3] -0.072 | crizotinib 0.016 | duvelisib 0.108 | tozasertib 0.016 | doramapimod 0.084

RFX3 (UniProt P48380)
inactive: alvocidib 0.036 | [2] 0.122 | encorafenib -0.056 | [3] 0.025 | alisertib -0.309 | gefitinib -0.235 | pictilisib 0.048 | [5] -0.108 | duvelisib 0.041 | gandotinib -0.07 | tozasertib -0.063 | bafetinib -0.011 | [6] 0.146

RBBP7 (UniProt C9J7L0)
inactive: alisertib 0.089 | gefitinib -0.058

RBBP7 (UniProt Q16576)
inactive: Tubastatin A -0.005 | [1] 0.006 | defactinib -0.018 | [2] -0.125 | encorafenib 0.032 | [3] -0.021 | alisertib 0.014 | [4] -0.003 | gefitinib 0.006 | lapatinib 0.001 | pictilisib 0.007 | crizotinib 0.026 | duvelisib 0.02 | tozasertib 0.073 | doramapimod -0.036 | bafetinib -0.072

RBBP4 isoform 2 (UniProt Q09028)
inactive: [4] -0.003 | lapatinib -0.003 | pictilisib 0.002 | bafetinib -0.06

RBMX2 (UniProt Q9Y388)
inactive: [1] -0.018 | defactinib -0.006 | [2] 0.061 | [4] 0 | lapatinib 0.064 | duvelisib -0.186

RBM20 (UniProt Q5T481)
inactive: Tubastatin A 0.086 | [1] 0.005 | defactinib -0.012 | [2] -0.212 | alisertib -0.02 | gefitinib 0.185 | pictilisib 0.03 | duvelisib -0.145 | bafetinib -0.046

RELCH (UniProt Q9P260)
inactive: defactinib -0.121 | [2] -0.113 | [4] 0.092 | lapatinib 0.07 | crizotinib -0.034 | duvelisib 0.15 | doramapimod 0.016

RCOR2 (UniProt Q8IZ40)
inactive: Tubastatin A -0.146
